## Percent effect of library compounds

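Whole-cell growth test on Mycobacterium tuberculosis, read after 4 days in a medium based on cholesterol and the lipid DPPC; the read-out is not stated. Concentration: 500 µM. The record gives no direction; compounds that gave an IC50 in retests scored well above the rest, so higher reads as more growth inhibition. About 18,000 compounds were tested under these conditions; 5% (about 900) showed 50% or more at least once.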

Each number is a percent effect as filed.
The record does not define 0% and 100%; most values in the screen are far below 50% and negative numbers occur (in some assays of this library far below -100).
This is an unselected part of the compounds tested.

| SMILES | Percent Effect |
|---|---|
| `CC1(c2ccc(F)cc2)CC(=O)NC1=O` (configuration not stated) | -1.16 |
| `CCC(=O)NC(CC)c1ccc(OC)c(OC)c1` (configuration not stated) | -0.546 |
| `COc1ccc(NC(=O)N2CCCC2)c(C)n1` | 8.885 |
| `CCN(C(=O)COc1ccccc1Cl)[C@H]1COC[C@@H]1O` | 13.19 |
| `CC1CN(C)CCN1CC(=O)N1CCc2sccc2C1` (configuration not stated) | 12.41 |
| `O=C(CC(F)(F)F)Nc1cnccn1` | -12.08 |
| `CCc1cc(N2CCCC(N)C2)ncn1` (configuration not stated) | 10.51 |
| `Cn1cc(CNCc2ccc3c(c2)OCCO3)cn1` | 5.708 |
| `CCn1cc(NC(=O)c2ccccc2)cn1` | 3.387 |
| `CC(C)CN1CCN(C(=O)c2ccncc2F)CC1` | -9.167 |
| `COc1cc(CNCCC(C)C)ccc1OCC(N)=O` | 4.034 |
| `CN(CC(=O)N(C)C)Cc1nc2ccccc2o1` | 14.66 |
| `CCn1cnnc1CNCc1c[nH]nc1C` | 4.834 |
| `CN(C)S(=O)(=O)CCCn1cnc2ccccc21` | -0.177 |
| `CC(C)(C)NC(=O)NCc1cncnc1N` | -12.55 |
| `Cc1cc(C(=O)NCCNC2CC2)ccc1F` | -4.83 |
| `CCOc1ccc(-c2cc(N)[nH]n2)cc1` | 59.83 |
| `N#CC(C#N)c1ccccn1` | 13.04 |
| `CC(C)(O)C1CCCN1C(=O)c1n[nH]c2ccccc12` (configuration not stated) | 3.609 |
| `CCN(CC)C(=O)c1cc(O)nc2c(C)cccc12` | -14.58 |
| `NC1CCOC2(CCC2)C1` (configuration not stated) | 8.937 |
| `CC(C)(C)OC(=O)N1CCN(C(CN)C(F)(F)F)CC1` (configuration not stated) | 19.87 |
| `CC(N)c1ccc2c(c1)CC(=O)N2C` (configuration not stated) | 11.5 |
| `Cc1cccc(C(=O)NCC2(O)CCC2)c1O` | 5.072 |
| `COCCn1ccnc1CN1CCC(C#N)CC1` | -11.05 |
| `Cc1cc(=O)[nH]c(CCNC(=O)[C@H]2CC[C@@H](N)C2)n1` | 3.825 |
| `O=C(CN1CCCCC1)N1CCCCC1` | 4.658 |
| `O=C(c1ccc(N2CCCCCC2)nc1)N1CC(O)C1` | 21.6 |
| `COc1ccc2nc(SCN3CCCCC3=O)[nH]c2c1` | 10.28 |
| `O=C(c1ccsc1)N1CCC2(CC1)OCCO2` | 1.787 |
| `N#Cc1cccc(CN2CCn3ccnc3C2)c1` | -8.154 |
| `CCc1nnc(CNC(=O)c2cnn(CC)c2C)s1` | 10.54 |
| `COCCn1cncc1CO` | -3.407 |
| `COc1ccc(F)c(F)c1C(=O)NC1CCCNC1=O` (configuration not stated) | -9.649 |
| `COc1cc(C#N)cnc1C` | -12.36 |
| `CS(=O)(=O)Cc1ccc(C(=O)Nc2ccccc2)cc1` | -2.463 |
| `NCc1cccc(C(=O)NC2CC2)c1` | -3.634 |
| `CN(Cc1ccco1)C(=O)CCc1ccc(C#N)cc1` | 95.38 |
| `CC(O)CN1CCC(CN(C)Cc2nccn2C)CC1` (configuration not stated) | -7.496 |
| `CC(C(=O)N1CCCC1)N(C)CCN1CCCC1` (configuration not stated) | -8.805 |
| `O=c1ccc(-c2csc(S(=O)(=O)N3CCCC3)c2)n[nH]1` | -12.3 |
| `O=C(C1CCCN(c2ccncc2Cl)C1)N1CCCC1` (configuration not stated) | -1.641 |
| `O=C(CN1C(=O)CC2(CCCC2)C1=O)NCC1CC1` | 19.59 |
| `CS(=O)(=O)c1ccc(CN2CCN3CCCC3C2)cc1` (configuration not stated) | 17.86 |
| `CCc1[nH][nH]c(=O)c1CCN` | 17.75 |
| `Cc1cc(C(=O)NCCCO)c2ccc(F)cc2n1` | -9.18 |
| `CO[C@H]1CC[C@H](NC(=O)c2cc(C)[nH]c(=O)c2)CC1` | -22.71 |
| `CC1CCN(C(=O)CC(N)c2ccccc2)CC1` (configuration not stated) | 48.02 |
| `NCc1ccc2c(c1)OCCO2` | -6.368 |
| `c1cc(SCCOCC2CCCO2)ccn1` (configuration not stated) | 8.053 |
| `N#CC(Cc1c(F)cccc1F)C(N)=O` (configuration not stated) | 2.484 |
| `Cc1cccc(NC(=O)CN2CCN(C)CC2)c1C` | -3.268 |
| `CC(C)n1cncn1` | -21.35 |
| `Nc1cc(C2CCN(C(=O)Cc3ccsc3)CC2)no1` | 49.29 |
| `CC1CN(C)CCN1Cc1nc(N)nc(N(C)C)n1` (configuration not stated) | -0.3706 |
| `CC(CN)N(C)C(=O)Cc1ccc(F)c(F)c1` (configuration not stated) | -24.56 |
| `CN(Cc1nc(-c2cccs2)no1)C(=O)C(C)(C)C` | 4.261 |
| `CCN(CC)CC(=O)Nc1ccn(CCC(N)=O)n1` | -1.828 |
| `CCn1ccc(=O)[nH]c1=O` | -1.978 |
| `O=C1CNC(=O)C2(CC2)N1` | -4.154 |
| `O=C(Cn1cccn1)Nc1ccccc1Br` | -3.002 |
| `CN1CC(CO)OC1=O` (configuration not stated) | 2.479 |
| `c1ccc(CNCCNC2CC2)cc1` | 2.111 |
| `O=C(NCC1CCN(C2CC2)C1)c1ccccn1` (configuration not stated) | 23.3 |
| `O=C(c1cc(Cl)ccc1OC(F)F)N1CCC(O)CC1` | 17.67 |
| `CCC(N)C(=O)N1CCOCC1` (configuration not stated) | 7.401 |
| `COCc1noc(CCNC(=O)[C@H]2CCC[C@H](O)C2)n1` | -14.29 |
| `Cn1cc(C(N)=O)c(NC(=O)c2ccc(Br)cc2)n1` | 40.78 |
| `CCOc1ccc(NC(=O)c2ncoc2C)cc1CO` | -6.498 |
| `CCC(N)C(=O)N(CC)Cc1ccoc1` (configuration not stated) | -14.3 |
| `CC(N)c1nncn1C(C)C` (configuration not stated) | 10.91 |
| `COC1(c2noc(-c3cnccn3)n2)CCC1` | 12.74 |
| `CN(C(c1ccccc1)c1ccccn1)S(C)(=O)=O` (configuration not stated) | 14.44 |
| `Cn1cc(NC(=O)C(C)(C)C)cc(Br)c1=O` | -9.415 |
| `CCC(C)(C)NC(=O)CS(=O)(=O)c1ccccn1` | -14.74 |
| `CCC(C(=O)NCc1nnc2n1CCC2)n1cccn1` (configuration not stated) | -0.1724 |
| `NS(=O)(=O)c1ccc(OCC(F)(F)F)nc1` | 3.439 |
| `Cc1ccc(S(=O)(=O)NC2CNC2)cc1` | -12.48 |
| `CNC1CCN(CC(=O)N2CCN(C)CC2)CC1` | 4.31 |
| `Cc1n[nH]cc1CNCc1ccc(-n2ccnc2)nc1` | 1.689 |
| `COc1ccc(Cl)cc1NCC(N)=O` | -7.041 |
| `N#CC1CCN(Cc2ccccc2)C1` (configuration not stated) | 18.52 |
| `CN1CCN(C(=O)Cc2ccccc2)CC1` | 12.65 |
| `COCC(=O)N1CCN(C(C)C(=O)NC(C)(C)C)CC1` (configuration not stated) | -5.117 |
| `O=S(=O)(Cc1ccncc1)Cc1cccc(Cl)c1` | 8.224 |
| `NC1CCN(c2cccc(Cl)c2)C1` (configuration not stated) | -7.494 |
| `CC(C)(C(=O)NCc1cccnc1)c1ccccc1` | 7.53 |
| `O=C(NCCN1CC=CC1)c1c(O)cc(F)cc1F` | 25.75 |

9 of the entries, repeated:

With O=S(=O)(Cc1ccncc1)Cc1cccc(Cl)c1 the screen gave 8.224%.
With CC(C)(O)C1CCCN1C(=O)c1n[nH]c2ccccc12 (configuration not stated) the screen gave 3.609%.
With CCc1nnc(CNC(=O)c2cnn(CC)c2C)s1 the screen gave 10.54%.
With O=C(C1CCCN(c2ccncc2Cl)C1)N1CCCC1 (configuration not stated) the screen gave -1.641%.
With NC1CCOC2(CCC2)C1 (configuration not stated) the screen gave 8.937%.
With CCc1cc(N2CCCC(N)C2)ncn1 (configuration not stated) the screen gave 10.51%.
With CN(Cc1ccco1)C(=O)CCc1ccc(C#N)cc1 the screen gave 95.38%.
With Cc1cc(C(=O)NCCNC2CC2)ccc1F the screen gave -4.83%.
With Nc1cc(C2CCN(C(=O)Cc3ccsc3)CC2)no1 the screen gave 49.29%.

The values are deposited in ChEMBL (CHEMBL3988442, “University of Dundee, Small-Polar-MMV Screening Library” (2021)).